Experimental data published in publication PMC2835750, “A Direct Interaction with NEDD1 Regulates γ-Tubulin Recruitment to the Centrosome” (PLoS ONE, 2010).
Results are given in words; binding and its absence hold for the method and conditions named. Binding seen in cells or lysates may run through a third protein. For some of these results: Binding calls can cover weak binding; strength is not graded here.

Chains of the proteins cited; added tags and fusions are not shown. Lines headed by an entry give the natural chain unless they say otherwise; changes in a name come on top. A line that says so, or that is headed by a name, gives the form on record, which may keep a tag or linker. Residues count along the entry.
UniProt Q8NHV4: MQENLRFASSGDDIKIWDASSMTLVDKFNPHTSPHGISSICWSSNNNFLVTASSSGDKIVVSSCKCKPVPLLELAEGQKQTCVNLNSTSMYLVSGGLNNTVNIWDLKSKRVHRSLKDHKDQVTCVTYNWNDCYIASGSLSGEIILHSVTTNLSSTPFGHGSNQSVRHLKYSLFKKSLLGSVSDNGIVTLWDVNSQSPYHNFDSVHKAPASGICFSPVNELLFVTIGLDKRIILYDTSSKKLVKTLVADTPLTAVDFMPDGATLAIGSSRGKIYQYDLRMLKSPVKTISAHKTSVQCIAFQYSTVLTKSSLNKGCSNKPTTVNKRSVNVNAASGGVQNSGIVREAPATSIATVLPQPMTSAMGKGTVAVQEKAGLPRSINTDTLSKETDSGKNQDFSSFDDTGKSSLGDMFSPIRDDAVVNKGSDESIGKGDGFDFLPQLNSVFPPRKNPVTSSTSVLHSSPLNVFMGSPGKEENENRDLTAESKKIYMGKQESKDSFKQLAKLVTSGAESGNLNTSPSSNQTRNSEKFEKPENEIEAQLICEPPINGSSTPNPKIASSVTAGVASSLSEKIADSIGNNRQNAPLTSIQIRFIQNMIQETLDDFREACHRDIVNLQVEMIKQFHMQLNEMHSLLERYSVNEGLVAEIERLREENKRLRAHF
Myc-NEDD1 (1–571): residues 1-571 of Q8NHV4
GST-NEDD1 CTD (residues 572–660): residues 572-660 of Q8NHV4
GFP-NEDD1 (572–634): residues 572-634 of Q8NHV4
GFP-NEDD1 (586–660): residues 586-660 of Q8NHV4
GFP-NEDD1 (residues 599–660): residues 599-660 of Q8NHV4
GFP-NEDD1 (611–660): residues 611-660 of Q8NHV4
GFP-NEDD1 (635–660): residues 635-660 of Q8NHV4
GFP-NEDD1 CTD E634A/R635A (Q8NHV4, form named): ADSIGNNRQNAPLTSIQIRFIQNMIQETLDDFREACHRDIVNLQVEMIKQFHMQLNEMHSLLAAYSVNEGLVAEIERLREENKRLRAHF
GFP-NEDD1 CTD N639A/E640A (Q8NHV4, form named): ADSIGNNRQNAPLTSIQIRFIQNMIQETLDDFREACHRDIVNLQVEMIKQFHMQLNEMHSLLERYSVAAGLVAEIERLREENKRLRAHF
GFP-NEDD1 CTD Y636A/S637A (Q8NHV4, form named): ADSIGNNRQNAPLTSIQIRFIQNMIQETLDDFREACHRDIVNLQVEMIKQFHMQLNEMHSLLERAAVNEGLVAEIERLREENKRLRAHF
UniProt P23258: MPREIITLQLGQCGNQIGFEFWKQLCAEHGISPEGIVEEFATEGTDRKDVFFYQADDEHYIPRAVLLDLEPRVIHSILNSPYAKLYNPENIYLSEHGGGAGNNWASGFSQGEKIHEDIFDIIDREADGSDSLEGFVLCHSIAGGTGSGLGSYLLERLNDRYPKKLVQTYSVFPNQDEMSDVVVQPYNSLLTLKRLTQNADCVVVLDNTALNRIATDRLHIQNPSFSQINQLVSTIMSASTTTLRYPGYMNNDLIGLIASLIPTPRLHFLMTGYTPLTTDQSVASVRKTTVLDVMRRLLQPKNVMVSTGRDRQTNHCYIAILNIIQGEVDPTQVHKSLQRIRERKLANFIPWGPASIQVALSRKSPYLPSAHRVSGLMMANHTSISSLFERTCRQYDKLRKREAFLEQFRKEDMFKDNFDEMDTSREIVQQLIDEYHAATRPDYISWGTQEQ

Key:
[1] = target: NEDD1 (endogenous) (human (endogenous in HEK293T)) (UniProt Q8NHV4); test: co-IP; endogenous proteins, HEK293T lysate, immunoprecipitated with NEDD1 antibody, blotted for γ-tubulin
[2] = target: GFP-NEDD1 (1–571) (human) (UniProt Q8NHV4); test: co-IP; GFP-NEDD1 constructs transfected into HEK293T, immunoprecipitated with GFP antibody, blotted for endogenous γ-tubulin
[3] = target: GFP-NEDD1 (572–634) (human) (UniProt Q8NHV4); test: as above
[4] = target: GFP-NEDD1 (586–660) (human) (UniProt Q8NHV4); test: as above
[5] = target: GFP-NEDD1 (611–660) (human) (UniProt Q8NHV4); test: as above
[6] = target: GFP-NEDD1 (635–660) (human) (UniProt Q8NHV4); test: as above
[7] = target: GFP-NEDD1 (residues 599–660) (human) (UniProt Q8NHV4); test: as above
[8] = target: GFP-NEDD1 CTD (572–660) (human) (UniProt Q8NHV4); test: as above
[9] = target: GFP-NEDD1 CTD E634A/R635A (human) (UniProt Q8NHV4); test: as above
[10] = target: GFP-NEDD1 CTD N639A/E640A (human) (UniProt Q8NHV4); test: as above
[11] = target: GFP-NEDD1 CTD Y636A/S637A (human) (UniProt Q8NHV4); test: as above
[12] = target: GFP-NEDD1 full length (1–660) (human) (UniProt Q8NHV4); test: as above
[13] = target: Myc-NEDD1 (1–571) (human) (UniProt Q8NHV4); test: co-IP; Myc-NEDD1 constructs transfected into HEK293T, immunoprecipitated with Myc antibody, blotted for endogenous γ-tubulin
[14] = target: Myc-NEDD1 (572–660) (human) (UniProt Q8NHV4); test: as above
[15] = target: Myc-NEDD1 full length (660 aa) (human) (UniProt Q8NHV4); test: as above
[16] = target: Myc-NEDD1 full length L649Q (human) (UniProt Q8NHV4); test: as above
[17] = target: Myc-NEDD1 full length L656Q (human) (UniProt Q8NHV4); test: as above
[18] = target: GST-NEDD1 CTD (residues 572–660) (human) (UniProt Q8NHV4); test: pull-down; GST or GST-NEDD1 CTD on glutathione sepharose beads, endogenous γ-tubulin from 50 µg pre-cleared HEK293T lysate, overnight at 4°C, NTEN buffer; only the target purified
[19] = target: GST-NEDD1 CTD (residues 572–660) (human) (UniProt Q8NHV4); test: pull-down; GST or GST-NEDD1 CTD on glutathione sepharose beads, 2.5 µg purified His-γ-tubulin, with or without 50 µg pre-cleared HEK293T lysate, overnight at 4°C, NTEN buffer (20 mM Tris pH 7.4, 0.1 mM EDTA, 100 mM NaCl, 0.5% NP-40); both purified

binding [1] | binding [2] | binding [3] | binding [4] | binding [5] | binding [6] | binding [7] | binding [8] | binding [9] | binding [10] | binding [11] | binding [12] | binding [13] | binding [14] | binding [15] | binding [16] | binding [17] | binding [18] | binding [19] | Substance
binds | no binding | no binding | binds | no binding | no binding | binds | binds | binds | no binding | no binding | binds | no binding | binds | binds | binds | binds | binds |  | γ-tubulin (endogenous) (from UniProt P23258)
 |  |  |  |  |  |  |  |  |  |  |  |  |  |  |  |  |  | binds | His-tagged γ-tubulin (from UniProt P23258)
